This is one part of the list.
Compound: Cc1cc(ccc1-c1ccccc1)C(=O)N1CCCN(CC1)C(=O)CCl [compound 10]
Experiment: probe-labelled cysteine peptide fold change vs DMSO (competition) (log2 fold change); higher = less target engagement (more negative = stronger competition)
Conditions: THP-1, incubation time: 4 h
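Further: competitive profiling in live THP-1 cells: cysteine peptides tagged with an iodoacetamide desthiobiotin (IA-DTB) probe, intensity after compound treatment relative to DMSO-treated cells.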

Chains of the proteins cited; added tags and fusions are not shown. Lines headed by an entry give the natural chain unless they say otherwise; changes in a name come on top.
UniProt P42575: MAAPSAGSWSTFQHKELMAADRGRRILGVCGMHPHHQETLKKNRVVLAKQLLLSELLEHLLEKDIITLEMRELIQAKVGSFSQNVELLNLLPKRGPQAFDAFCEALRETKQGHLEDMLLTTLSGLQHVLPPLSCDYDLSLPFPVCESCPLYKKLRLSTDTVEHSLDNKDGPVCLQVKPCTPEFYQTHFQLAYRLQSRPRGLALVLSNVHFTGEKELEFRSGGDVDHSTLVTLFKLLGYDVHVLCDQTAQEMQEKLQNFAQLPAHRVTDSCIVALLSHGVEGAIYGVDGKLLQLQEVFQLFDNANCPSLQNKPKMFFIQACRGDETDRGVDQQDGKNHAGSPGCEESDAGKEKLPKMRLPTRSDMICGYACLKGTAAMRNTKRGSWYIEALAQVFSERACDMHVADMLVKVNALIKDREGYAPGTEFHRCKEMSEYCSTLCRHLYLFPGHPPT
UniProt P49368: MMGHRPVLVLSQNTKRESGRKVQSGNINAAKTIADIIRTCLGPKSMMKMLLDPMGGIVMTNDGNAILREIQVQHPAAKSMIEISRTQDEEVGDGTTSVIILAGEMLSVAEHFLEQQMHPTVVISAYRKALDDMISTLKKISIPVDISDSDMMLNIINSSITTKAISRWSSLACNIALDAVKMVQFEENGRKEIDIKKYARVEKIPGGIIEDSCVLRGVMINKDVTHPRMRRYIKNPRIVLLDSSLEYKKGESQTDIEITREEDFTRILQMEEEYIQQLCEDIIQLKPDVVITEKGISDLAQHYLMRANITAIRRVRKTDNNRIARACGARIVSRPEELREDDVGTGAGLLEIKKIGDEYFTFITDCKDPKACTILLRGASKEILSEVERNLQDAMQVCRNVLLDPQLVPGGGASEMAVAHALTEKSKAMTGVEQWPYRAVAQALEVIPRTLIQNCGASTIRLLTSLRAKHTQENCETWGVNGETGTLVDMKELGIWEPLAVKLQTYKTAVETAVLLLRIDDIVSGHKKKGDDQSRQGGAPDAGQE
UniProt P17655: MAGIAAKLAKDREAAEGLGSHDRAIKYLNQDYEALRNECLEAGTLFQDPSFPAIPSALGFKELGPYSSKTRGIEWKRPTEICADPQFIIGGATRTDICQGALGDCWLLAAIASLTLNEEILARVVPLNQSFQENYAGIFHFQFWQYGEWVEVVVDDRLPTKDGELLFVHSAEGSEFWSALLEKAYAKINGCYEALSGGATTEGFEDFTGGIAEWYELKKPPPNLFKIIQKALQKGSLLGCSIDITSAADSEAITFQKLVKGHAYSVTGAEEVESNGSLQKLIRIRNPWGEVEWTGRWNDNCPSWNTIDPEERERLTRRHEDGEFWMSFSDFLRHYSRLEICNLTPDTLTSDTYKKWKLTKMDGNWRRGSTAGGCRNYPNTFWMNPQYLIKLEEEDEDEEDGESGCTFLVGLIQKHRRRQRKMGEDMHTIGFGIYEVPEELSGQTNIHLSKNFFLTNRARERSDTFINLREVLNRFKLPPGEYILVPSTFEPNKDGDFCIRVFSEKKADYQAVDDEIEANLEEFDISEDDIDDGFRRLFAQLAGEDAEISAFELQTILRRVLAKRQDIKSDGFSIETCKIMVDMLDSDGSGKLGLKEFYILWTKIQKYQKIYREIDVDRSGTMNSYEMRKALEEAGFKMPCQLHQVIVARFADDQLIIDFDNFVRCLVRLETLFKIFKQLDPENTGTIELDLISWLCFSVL
UniProt P50991: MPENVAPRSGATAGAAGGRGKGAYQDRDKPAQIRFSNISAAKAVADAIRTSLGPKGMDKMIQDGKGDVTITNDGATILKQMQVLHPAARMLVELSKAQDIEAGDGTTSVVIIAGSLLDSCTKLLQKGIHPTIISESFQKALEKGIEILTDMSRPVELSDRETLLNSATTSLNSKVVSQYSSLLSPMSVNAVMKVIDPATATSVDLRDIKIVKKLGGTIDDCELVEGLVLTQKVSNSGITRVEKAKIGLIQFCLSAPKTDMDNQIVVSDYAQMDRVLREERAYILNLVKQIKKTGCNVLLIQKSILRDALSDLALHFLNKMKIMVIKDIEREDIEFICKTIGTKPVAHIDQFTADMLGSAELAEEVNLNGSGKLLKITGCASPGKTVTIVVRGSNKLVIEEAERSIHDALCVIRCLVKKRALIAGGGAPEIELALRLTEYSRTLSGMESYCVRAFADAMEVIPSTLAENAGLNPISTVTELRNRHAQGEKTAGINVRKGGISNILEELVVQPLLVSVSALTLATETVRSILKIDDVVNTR
UniProt P29466: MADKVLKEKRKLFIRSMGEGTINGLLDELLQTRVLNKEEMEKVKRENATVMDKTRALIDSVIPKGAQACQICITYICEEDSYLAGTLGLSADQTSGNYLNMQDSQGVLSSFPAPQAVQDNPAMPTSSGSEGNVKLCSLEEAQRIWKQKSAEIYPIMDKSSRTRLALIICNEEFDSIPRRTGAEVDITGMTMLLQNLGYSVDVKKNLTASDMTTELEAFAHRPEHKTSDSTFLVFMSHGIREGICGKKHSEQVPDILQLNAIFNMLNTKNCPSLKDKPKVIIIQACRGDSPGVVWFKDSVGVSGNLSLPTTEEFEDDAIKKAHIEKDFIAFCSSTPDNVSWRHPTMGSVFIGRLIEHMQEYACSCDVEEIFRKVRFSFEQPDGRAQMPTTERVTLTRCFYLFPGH
UniProt P48643, whole entry, looked up: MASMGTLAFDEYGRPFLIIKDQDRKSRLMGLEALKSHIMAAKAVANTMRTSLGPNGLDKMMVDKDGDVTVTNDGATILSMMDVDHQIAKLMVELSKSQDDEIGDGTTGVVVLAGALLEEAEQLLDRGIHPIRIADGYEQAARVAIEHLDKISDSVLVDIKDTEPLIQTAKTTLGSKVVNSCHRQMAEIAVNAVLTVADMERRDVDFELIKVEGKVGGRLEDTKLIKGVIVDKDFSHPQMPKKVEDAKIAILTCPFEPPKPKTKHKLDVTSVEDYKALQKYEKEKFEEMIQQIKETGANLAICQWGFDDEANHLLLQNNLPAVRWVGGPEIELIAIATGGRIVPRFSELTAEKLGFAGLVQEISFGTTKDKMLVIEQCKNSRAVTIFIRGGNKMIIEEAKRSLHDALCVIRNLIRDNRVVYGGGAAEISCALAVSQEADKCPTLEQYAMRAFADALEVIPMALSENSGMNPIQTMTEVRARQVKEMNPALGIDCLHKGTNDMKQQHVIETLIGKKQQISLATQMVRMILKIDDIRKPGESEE
UniProt O75909: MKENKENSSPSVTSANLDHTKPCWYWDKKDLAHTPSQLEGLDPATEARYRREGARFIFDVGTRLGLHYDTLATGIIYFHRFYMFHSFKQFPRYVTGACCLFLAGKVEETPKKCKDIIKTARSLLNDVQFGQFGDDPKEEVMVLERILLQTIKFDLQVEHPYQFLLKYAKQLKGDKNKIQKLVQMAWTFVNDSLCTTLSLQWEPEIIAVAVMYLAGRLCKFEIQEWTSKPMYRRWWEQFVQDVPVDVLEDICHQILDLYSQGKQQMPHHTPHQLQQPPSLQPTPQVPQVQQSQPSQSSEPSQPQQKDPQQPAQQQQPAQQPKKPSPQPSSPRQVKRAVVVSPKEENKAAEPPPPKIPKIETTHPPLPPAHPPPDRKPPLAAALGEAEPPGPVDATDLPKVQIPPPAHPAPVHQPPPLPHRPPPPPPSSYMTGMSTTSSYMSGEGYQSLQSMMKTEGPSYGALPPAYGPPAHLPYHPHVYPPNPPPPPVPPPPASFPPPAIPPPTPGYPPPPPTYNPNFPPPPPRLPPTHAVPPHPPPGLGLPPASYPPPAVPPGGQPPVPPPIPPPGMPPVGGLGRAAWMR
UniProt P40121: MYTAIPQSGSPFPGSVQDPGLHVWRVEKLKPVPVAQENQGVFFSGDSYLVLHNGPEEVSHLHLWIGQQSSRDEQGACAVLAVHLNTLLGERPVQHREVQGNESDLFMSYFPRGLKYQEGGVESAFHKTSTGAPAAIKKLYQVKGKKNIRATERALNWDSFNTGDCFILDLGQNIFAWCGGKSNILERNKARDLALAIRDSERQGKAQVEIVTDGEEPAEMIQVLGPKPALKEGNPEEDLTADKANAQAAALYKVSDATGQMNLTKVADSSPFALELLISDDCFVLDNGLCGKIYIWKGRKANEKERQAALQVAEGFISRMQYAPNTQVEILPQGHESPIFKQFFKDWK
UniProt Q9HC52: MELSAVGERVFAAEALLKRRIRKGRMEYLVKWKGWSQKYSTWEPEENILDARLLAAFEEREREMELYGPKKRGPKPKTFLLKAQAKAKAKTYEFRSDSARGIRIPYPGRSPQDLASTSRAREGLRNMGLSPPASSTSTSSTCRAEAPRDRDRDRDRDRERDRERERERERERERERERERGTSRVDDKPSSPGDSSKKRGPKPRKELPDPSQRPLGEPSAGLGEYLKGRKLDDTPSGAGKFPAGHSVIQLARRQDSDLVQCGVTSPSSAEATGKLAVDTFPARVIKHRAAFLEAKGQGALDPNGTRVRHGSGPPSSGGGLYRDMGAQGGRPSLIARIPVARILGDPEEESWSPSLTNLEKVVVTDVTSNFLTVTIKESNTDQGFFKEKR
UniProt P04040: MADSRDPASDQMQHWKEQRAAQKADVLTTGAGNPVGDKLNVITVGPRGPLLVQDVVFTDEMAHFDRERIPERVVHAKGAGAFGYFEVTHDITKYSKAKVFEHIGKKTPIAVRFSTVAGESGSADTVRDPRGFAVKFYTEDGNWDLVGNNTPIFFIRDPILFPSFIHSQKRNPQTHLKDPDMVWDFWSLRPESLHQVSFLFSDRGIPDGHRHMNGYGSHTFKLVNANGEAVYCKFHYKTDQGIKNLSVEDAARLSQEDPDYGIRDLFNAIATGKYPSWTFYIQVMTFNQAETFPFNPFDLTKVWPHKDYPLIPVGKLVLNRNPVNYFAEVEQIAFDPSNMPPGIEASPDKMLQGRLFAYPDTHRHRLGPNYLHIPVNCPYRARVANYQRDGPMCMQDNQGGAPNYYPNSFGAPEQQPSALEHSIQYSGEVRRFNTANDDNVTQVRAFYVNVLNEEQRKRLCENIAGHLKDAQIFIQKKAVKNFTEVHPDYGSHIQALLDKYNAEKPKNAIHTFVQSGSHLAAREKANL
UniProt O60826, whole entry, looked up: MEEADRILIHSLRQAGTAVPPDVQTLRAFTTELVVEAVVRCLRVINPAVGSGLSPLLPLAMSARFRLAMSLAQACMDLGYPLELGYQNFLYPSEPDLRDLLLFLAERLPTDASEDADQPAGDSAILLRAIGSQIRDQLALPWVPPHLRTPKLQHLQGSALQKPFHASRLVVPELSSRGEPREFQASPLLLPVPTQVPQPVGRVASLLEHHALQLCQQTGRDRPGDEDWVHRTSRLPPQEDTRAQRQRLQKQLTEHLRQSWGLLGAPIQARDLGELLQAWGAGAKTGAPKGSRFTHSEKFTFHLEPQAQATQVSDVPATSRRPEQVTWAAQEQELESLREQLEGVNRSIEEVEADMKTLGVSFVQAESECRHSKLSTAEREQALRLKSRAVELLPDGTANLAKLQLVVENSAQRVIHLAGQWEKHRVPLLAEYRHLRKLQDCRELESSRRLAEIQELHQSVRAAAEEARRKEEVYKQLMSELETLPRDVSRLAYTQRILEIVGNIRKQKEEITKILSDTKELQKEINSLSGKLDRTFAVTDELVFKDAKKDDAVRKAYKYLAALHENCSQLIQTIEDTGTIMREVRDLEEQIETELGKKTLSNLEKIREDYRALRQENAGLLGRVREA
UniProt Q9Y6W3: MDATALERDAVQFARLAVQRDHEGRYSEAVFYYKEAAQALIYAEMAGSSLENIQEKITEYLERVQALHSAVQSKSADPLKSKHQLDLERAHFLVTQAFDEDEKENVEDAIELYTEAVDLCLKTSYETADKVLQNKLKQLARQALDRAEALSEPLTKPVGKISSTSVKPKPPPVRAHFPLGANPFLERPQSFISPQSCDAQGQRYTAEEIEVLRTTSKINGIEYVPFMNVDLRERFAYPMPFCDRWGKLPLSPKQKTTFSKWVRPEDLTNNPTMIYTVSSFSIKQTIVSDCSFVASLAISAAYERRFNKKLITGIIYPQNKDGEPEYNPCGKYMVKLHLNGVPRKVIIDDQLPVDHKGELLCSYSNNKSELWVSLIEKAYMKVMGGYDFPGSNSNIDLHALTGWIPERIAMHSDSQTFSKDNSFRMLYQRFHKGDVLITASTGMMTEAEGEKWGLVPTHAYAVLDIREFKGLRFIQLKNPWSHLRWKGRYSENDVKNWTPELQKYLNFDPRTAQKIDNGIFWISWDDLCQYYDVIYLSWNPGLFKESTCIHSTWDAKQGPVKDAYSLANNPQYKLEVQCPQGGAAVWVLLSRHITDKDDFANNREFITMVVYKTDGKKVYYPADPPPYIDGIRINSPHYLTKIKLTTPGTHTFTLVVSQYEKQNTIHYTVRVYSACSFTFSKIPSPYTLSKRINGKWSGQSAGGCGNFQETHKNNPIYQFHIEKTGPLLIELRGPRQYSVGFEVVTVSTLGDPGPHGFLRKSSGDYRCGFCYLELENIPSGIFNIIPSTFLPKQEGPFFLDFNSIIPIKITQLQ

Row | Target | probe-labelled cysteine peptide fold change (10 µM) | probe-labelled cysteine peptide fold change (50 µM)
1 | CASP2_P42575_173+179_DGPVCLQVKPCTPEFYQTHFQLAYR (UniProt P42575) | -0.255 | -0.681
2 | CCT3_P49368_366_IGDEYFTFITDCK (UniProt P49368) | -0.0468 | -0.827
3 | CAPN2_P17655_640_MPCQLHQVIVAR (UniProt P17655) | 0.0245 | -0.0914
4 | CCT2_P78371_289_HGINCFINR (UniProt P78371) | 0.0675 | 0.0153
5 | CCT4_P50991_337_EDIEFICK (UniProt P50991) | 0.474 | 0.355
6 | CASP10_Q92851_97_LLQHLNCTK (UniProt Q92851) | -0.123 | -0.203
7 | CAPZA1_P52907_141_DHYSNGFCTVYAK (UniProt P52907) | 0.236 | -0.0314
8 | CCAR2_Q8N163_515_RNAETPEATTQQETDTDLPEAPPPPLEPAVIARPGCVNLSLHGIVEDR (UniProt Q8N163) | 0.107 | -0.245
9 | CASP1_P29466_362+364_LIEHMQEYACSCDVEEIFRK (UniProt P29466) | -0.0851 | -0.556
10 | CAPN2_P17655_82_RPTEICADPQFIIGGATR (UniProt P17655) | -0.162 | -0.203
11 | CASP3_P42574_47_MDYPEMGLCIIINNK (UniProt P42574) | -0.153 | -0.134
12 | CCNB2_O95067_314_VAAAASCLSQK (UniProt O95067) | 0.174 | 0.0564
13 | CCT5_P48643_429_VVYGGGAAEISCALAVSQEADK (UniProt P48643) | -0.0204 | 0.249
14 | CCAR2_Q8N163_644_PRGEASEDLCEMALDPELLLLR (UniProt Q8N163) | 0.453 | 0.512
15 | CASP1_P29466_169_LALIICNEEFDSIPR (UniProt P29466) | 0.166 | 0.0663
16 | CCAR2_Q8N163_644_GEASEDLCEMALDPELLLLR (UniProt Q8N163) | 0.228 | 0.188
17 | CASP8_Q14790_409_YIPDEADFLLGMATVNNCVSYR (UniProt Q14790) | 0.0909 | -0.301
18 | CCNK_O75909_23_ENSSPSVTSANLDHTKPCWYWDK (UniProt O75909) | -0.0903 | -0.254
19 | CASP8AP2_Q9UKL3_174_SPHLDDCSK (UniProt Q9UKL3) | -0.153 | -0.0612
20 | CBFA2T2_O43439_357_HLDHALNCIMEMVEK (UniProt O43439) | 0.0922 | -0.14
21 | CARS2_Q9HA77_387_GQLACGSVR (UniProt Q9HA77) | 0.0295 | 0.06
22 | CCDC115_Q96NT0_68_SVGPLQYASHMEPQVCLHASEAQEGLQK (UniProt Q96NT0) | -0.0291 | 0.0895

Quoted from the listing:
CCT4_P50991_337_EDIEFICK (UniProt P50991) – probe-labelled cysteine peptide fold change (50 µM): 0.355
CCAR2_Q8N163_515_RNAETPEATTQQETDTDLPEAPPPPLEPAVIARPGCVNLSLHGIVEDR (UniProt Q8N163) – probe-labelled cysteine peptide fold change (10 µM): 0.107
CASP2_P42575_173+179_DGPVCLQVKPCTPEFYQTHFQLAYR (UniProt P42575) – probe-labelled cysteine peptide fold change (10 µM): -0.255

Going on with the list.

Row | Target | probe-labelled cysteine peptide fold change (10 µM) | probe-labelled cysteine peptide fold change (50 µM)
23 | CAPNS1_P04632_232_YSDESGNMDFDNFISCLVR (UniProt P04632) | 0.31 | 0.559
24 | CAPN1_P07384_11_SEEIITPVYCTGVSAQVQK (UniProt P07384) | -0.286 | -0.0134
25 | CCT3_P49368_40_TCLGPK (UniProt P49368) | 0.151 | 0.131
26 | CCS_O14618_113_CLIEGTIDGLEPGLHGLHVHQYGDLTNNCNSCGNHFNPDGASHGGPQDSDR (UniProt O14618) | -0.164 | -0.935
27 | CARD9_Q9H257_329_EMFELQCLALRK (UniProt Q9H257) | -0.28 | -0.618
28 | CAPG_P40121_77_DEQGACAVLAVHLNTLLGER (UniProt P40121) | 0.242 | 0.312
29 | CCNA2_P20248_390_KTGYTLESLKPCLMDLHQTYLK (UniProt P20248) | -0.0923 | -0.383
30 | CBX8_Q9HC52_261_RQDSDLVQCGVTSPSSAEATGK (UniProt Q9HC52) | -0.211 | -0.0374
31 | CBX3_Q13185_177_LTWHSCPEDEAQ (UniProt Q13185) | -0.338 | -0.285
32 | CAST_P20810-2_228_ELLAKPIGPDDAIDALSSDFTCGSPTAAGK (UniProt P20810) | 0.0534 | -0.125
33 | CARM1_Q86X55_193_IVLDVGCGSGILSFFAAQAGAR (UniProt Q86X55) | 0.395 | 0.172
34 | CARD19_Q96LW7_7_TDQTYCDR (UniProt Q96LW7) | 0.414 | 0.465
35 | CCAR2_Q8N163_324_CCMLFVDDMAEPR (UniProt Q8N163) | -0.0436 | -0.0686
36 | CAPG_P40121_77_DEQGACAVLAVHLNTLLGERPVQHR (UniProt P40121) | 0.105 | 0.224
37 | CAT_P04040_232_LVNANGEAVYCK (UniProt P04040) | 0.122 | 0.0935
38 | CBX8_Q9HC52_142_NMGLSPPASSTSTSSTCR (UniProt Q9HC52) | -0.187 | -0.373
39 | CAPZA1_P52907_124_ESCDSALR (UniProt P52907) | 0.103 | 0.0474
40 | CCND3_P30281_6_MELLCCEGTR (UniProt P30281) | -0.184 | -0.26
41 | CAP2_P40123_430_TEGCHIYLSEDALDCEIVSAK (UniProt P40123) | -0.115 | 0.168
42 | CCT3_P49368_475_HTQENCETWGVNGETGTLVDMK (UniProt P49368) | -0.135 | 0.0527
43 | CCDC22_O60826_441_KLQDCR (UniProt O60826) | -0.15 | -0.337
44 | CCT3_P49368_173_WSSLACNIALDAVK (UniProt P49368) | 0.321 | 0.129

Row | Target | probe-labelled cysteine peptide fold change (10 µM) | probe-labelled cysteine peptide fold change (50 µM)
45 | CARD6_Q9BX69_872_AVGKPWPQQACTR (UniProt Q9BX69) | -0.34 | -0.372
46 | CAPZA2_P47755_157_IDGQQTIIACIESHQFQAK (UniProt P47755) | -0.187 | 0.155
47 | CAPN7_Q9Y6W3_242_FAYPMPFCDR (UniProt Q9Y6W3) | -0.0997 | -0.0155
48 | CAPN7_Q9Y6W3_120_ENVEDAIELYTEAVDLCLK (UniProt Q9Y6W3) | 0.131 | 0.358
49 | CASP2_P42575_179_DGPVCLQVKPCTPEFYQTHFQLAYR (UniProt P42575) | -0.458 | -0.354
50 | CCT5_P48643_181_VVNSCHR (UniProt P48643) | 0.0564 | 0.0289
51 | CASP4_P49662_109_LCPHEEFLR (UniProt P49662) | 0.0345 | -0.0365
52 | CCDC22_O60826_215_VASLLEHHALQLCQQTGR (UniProt O60826) | -0.0248 | 0.208
53 | CAP1_Q01518_416_VQVMGKVPTISINKTDGCHAYLSK (UniProt Q01518) | -0.358 | -0.816
54 | CCNK_O75909_99_YVTGACCLFLAGK (UniProt O75909) | 0.172 | 0.0589
55 | CCDC88B_A6NC98_1382_AQSSLCLRDETLAGGQR (UniProt A6NC98) | -0.453 | -0.675
56 | CAT_P04040_377_LGPNYLHIPVNCPYR (UniProt P04040) | -0.0544 | -0.117
57 | CCT3_P49368_213_IPGGIIEDSCVLR (UniProt P49368) | 0.0974 | 0.056
58 | CCAR1_Q8IX12_376_FSLDCPSCDMMELR (UniProt Q8IX12) | 0.116 | -0.133
59 | CCDC97_Q96F63_122_TGLREEHLACFGHVR (UniProt Q96F63) | 0.345 | 0.477
60 | CCT3_P49368_366_KIGDEYFTFITDCK (UniProt P49368) | 0.221 | -0.148
61 | CCT3_P49368_372_ACTILLR (UniProt P49368) | 0.0214 | 0.023
62 | CCDC51_Q96ER9_331_TCSQMAGVVQLVK (UniProt Q96ER9) | 0.0365 | -0.0554
63 | CAST_P20810_381_SESELIDELSEDFDRSECK (UniProt P20810) | -0.197 | -0.0431
64 | CBX4_O00257_185_EAPSPTCPDLGAK (UniProt O00257) | -0.129 | -0.0437
65 | CBR1_P16152_226+227_ILLNACCPGWVR (UniProt P16152) | -0.0566 | -0.378
66 | CAPZB_P47756_62_DYLLCDYNRDGDSYR (UniProt P47756) | -0.437 | -0.768

Source: the supplement of paper PMC12067093, “Discovery and optimisation of a covalent ligand for TRIM25 and its application to targeted protein ubiquitination” (Chemical Science, 2025)
